Measured values: publication doi:10.1101/2024.01.09.574790
No constants are given. Whether binding was seen depends on the method and setting. Some entries that bind do so weakly or less than the wild type.

Amino acid sequences for entries named in this document (tags omitted).
UniProt A8MS85: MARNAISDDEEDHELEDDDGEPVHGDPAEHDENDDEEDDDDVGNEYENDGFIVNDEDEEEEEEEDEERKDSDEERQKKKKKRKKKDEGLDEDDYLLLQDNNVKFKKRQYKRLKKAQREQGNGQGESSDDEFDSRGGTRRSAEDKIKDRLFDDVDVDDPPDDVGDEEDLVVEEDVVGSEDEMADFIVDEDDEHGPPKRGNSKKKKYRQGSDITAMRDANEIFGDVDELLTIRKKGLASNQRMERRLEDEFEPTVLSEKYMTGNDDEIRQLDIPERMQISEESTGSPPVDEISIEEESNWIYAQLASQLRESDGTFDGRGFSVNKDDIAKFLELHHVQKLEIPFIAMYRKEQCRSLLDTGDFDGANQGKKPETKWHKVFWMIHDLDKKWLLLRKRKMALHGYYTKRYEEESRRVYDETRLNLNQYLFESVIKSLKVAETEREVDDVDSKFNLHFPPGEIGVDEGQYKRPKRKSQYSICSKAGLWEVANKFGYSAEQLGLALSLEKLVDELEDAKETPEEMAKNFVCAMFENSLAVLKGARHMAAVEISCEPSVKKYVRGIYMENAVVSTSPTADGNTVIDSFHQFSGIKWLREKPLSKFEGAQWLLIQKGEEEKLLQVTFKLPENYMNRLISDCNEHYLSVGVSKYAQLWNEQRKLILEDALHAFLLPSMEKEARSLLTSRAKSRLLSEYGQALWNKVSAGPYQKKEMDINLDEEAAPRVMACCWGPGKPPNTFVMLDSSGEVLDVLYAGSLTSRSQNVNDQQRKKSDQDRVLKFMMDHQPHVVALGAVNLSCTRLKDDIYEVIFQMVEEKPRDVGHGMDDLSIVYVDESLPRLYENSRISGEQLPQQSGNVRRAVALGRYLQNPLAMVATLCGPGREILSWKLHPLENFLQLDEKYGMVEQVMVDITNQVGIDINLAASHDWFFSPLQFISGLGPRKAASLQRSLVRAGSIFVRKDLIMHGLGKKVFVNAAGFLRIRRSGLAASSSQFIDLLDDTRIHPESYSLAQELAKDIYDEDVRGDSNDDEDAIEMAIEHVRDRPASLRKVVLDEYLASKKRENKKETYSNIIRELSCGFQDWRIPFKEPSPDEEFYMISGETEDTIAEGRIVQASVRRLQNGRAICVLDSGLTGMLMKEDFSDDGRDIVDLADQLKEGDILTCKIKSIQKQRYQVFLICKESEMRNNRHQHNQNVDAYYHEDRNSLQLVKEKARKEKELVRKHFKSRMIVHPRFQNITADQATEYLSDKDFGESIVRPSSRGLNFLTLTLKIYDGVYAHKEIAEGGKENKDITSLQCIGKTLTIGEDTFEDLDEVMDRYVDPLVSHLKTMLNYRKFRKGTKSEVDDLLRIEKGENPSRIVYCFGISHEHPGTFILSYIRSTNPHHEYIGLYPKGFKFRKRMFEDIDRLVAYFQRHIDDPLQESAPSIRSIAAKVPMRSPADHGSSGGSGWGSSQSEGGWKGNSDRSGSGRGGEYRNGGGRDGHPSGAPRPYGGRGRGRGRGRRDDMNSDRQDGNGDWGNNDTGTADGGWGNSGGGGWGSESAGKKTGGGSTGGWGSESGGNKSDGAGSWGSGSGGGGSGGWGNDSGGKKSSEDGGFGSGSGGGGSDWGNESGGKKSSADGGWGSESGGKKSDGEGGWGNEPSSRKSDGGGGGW

B1: NRPE4, subunit of Pol V, two-hybrid prey in pGADT7 (protein, UniProt Q6DBA5 1-205)
chain: MSEKGGKGLKSSLKSKDGGKDGSSTKLKKGRKIHFDQRTPPANYKILNVSSDQQPFQSSAAKCGKSDKPTKSSKNSLHSFELKDLPENAECMMDCEAFQILDGIKGQLVGLSEDPSIKIPVSYDRALAYVESCVHYTNPQSVRKVLEPLKTYGISDGEMCVIANASSESVDEVLAFIPSLKTKKEVINQPLQDALEELSKLKKSE
B2: NRPE7, subunit of Pol V, two-hybrid prey in pGADT7 (protein, UniProt A6QRA1 1-178)
chain: MFLKVQLPWNVMIPAENMDAKGLMLKRAILVELLEAFASKKATKELGYYVAVTTLDKIGEGKIREHTGEVLFPVMFSGMTFKIFKGEIIHGVVHKVLKHGVFMRCGPIENVYLSYTKMPDYKYIPGENPIFMNEKTSRIQVETTVRVVVIGIKWMEVEREFQALASLEGDYLGPLSEE
B3: SPT5L, Pol V associated factor, two-hybrid prey in pGADT7 (protein, UniProt F4JW79 1-1493)
chain: MDRKGKGKQVAGSDSYSGGQKRKNSVEFRDEGLRIKKRKNPEVLQFFEESAEVGYYGGSSDEDDDGLGFLNDMEDEPEVEESSKAGKGEKGKSSFVFPKEEDLNEEEFDRIMEERYKPGSGFLRYADDDIKDAIEMDALAPTSKDPPIWKVKCAIGRERRSVFCLMHKFVELRKIGTKLEIISVFSVDHVKGFIFIEADKEHDVLEACKSLVGIYATRMVLLPKAETPNLLTVQKKTKKVSEGTWARVKNGKYKGDLAQIVAVSDTRNKALIKLIPRIDIQALTQKYGGGVTVQKGQTPAPRLISSSELEEFRPLIQVRRDRDTGITFEHLDSLMLKDGYLYKKVSLDSISSWGVIPTKDELLKFTPVDRKETGDVEWISEIYGEERKKKILPTCREGGKGEGSGGGKGEGSGGGKGEGSRGGKGEGSSDFKSESSYELYNLVCFSRKDFGLIVGVDDKGDGYKVLKEGIDGPVVVTVGKKEMQNGPFDSKFTALDLNKKQISVNDVVKISKGPSEGKQGVVRQVYRGIIFLYDESEEENGGYFCCKSQSCEKVKLFTEESNEKTGGFDGTAFEDFVSSPKSPLSPEKEWQPRERYNSSNQGDIGSTYSIGQKLRIRVGPLKGYLCRVIALRYSDVTVKLDSQHKIFTVKSEHLAEVRDRNTVLSTSGDAGTGSFQPFGMLGTESSTGDWAIGAGTSSEGGNWNIGGPSTDSHESLNIERNMVQLCREKNPWGGSKPTSDVSPTVADDNTSAWANAAAENKPASASDQPGGWNPWGKTPASEAGTVSGWGDTSASNVEASSWEKQGASTSNVADLGSWGTHGGSSGGNKQDEDSVWGKLCEASESSQKKEESSWGKKGGSDGESSWGNKDGNSSASKKDGVSWGQQDKGSDESKGGSAWSNQCGDFGSGKKKDGSSGWNKSAEDSNANSKGVPDWGQPNDGSSWGKKGDGAASWGKKDDGGSWGKKDDGNKDDGGSSWGKKDDGQKDDGGSSWEKKFDGGSSWGKKDDGGSSWGKKDDGGSLWGKKDDGGSSWGKEDDGGSLWGKKDDGESSWGKKDDGESSWGKKDDGGSSWGKKDEGGYSEQTFDRGGRGFGGRRGGGRRGGRDQFGRGSSFGNSEDPAPWSKPSGGSSWGKQDGDGGGSSWGKENDAGGGSSWGKQDNGVGSSWGKQNDGSGGGSSWGKQNDAGGGSSWGKQDSGGDGSSWGKQDGGGDSGSAWGKQNNTSGGSSWGKQSDAGGGSSWGKQDGGGGGSSWGKQDGGGGSGSAWGKQNETSNGSSWGKQNDSGGGSSWGKQDGGGGGSSWGKQNDGGGGSSWGKQGDGGSKPWNEHSGGGRGFGERRGGGGFRGGRNQSGRGGRSFDGGRSSSWKTDNQENTWKSDQSGGSDWKKGWGEDSNNSKPSGSSAGGCAGNWPSWDTNSKKETNDKPGDDSKSAWGTSNDQVNTDNNNDSWNKKPNNDVGTSGEADNAWGGKTNAVAPSPSGSAAWGTGDKKTGW

These binders were tested against SPT6L (SPT6-like), two-hybrid bait in pGBKT7 (Arabidopsis) (UniProt A8MS85) (assay: two-hybrid).

Row | Binder | binding
1 | B1 | binds
2 | B2 | binds
3 | B3 | binds
